Reference: the supplement of paper PMC7666118
This is one part of the list.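 The calls were made as follows: active = dose-dependent thermal stabilisation significant by F-test of dose-response against flat model at 10% FDR; inactive = not significant.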

Sequences of proteins named here, by UniProt entry; tags and fusion partners are left off. A change or cut given only in a name is not applied to a line headed by its entry.
UniProt Q96FJ0: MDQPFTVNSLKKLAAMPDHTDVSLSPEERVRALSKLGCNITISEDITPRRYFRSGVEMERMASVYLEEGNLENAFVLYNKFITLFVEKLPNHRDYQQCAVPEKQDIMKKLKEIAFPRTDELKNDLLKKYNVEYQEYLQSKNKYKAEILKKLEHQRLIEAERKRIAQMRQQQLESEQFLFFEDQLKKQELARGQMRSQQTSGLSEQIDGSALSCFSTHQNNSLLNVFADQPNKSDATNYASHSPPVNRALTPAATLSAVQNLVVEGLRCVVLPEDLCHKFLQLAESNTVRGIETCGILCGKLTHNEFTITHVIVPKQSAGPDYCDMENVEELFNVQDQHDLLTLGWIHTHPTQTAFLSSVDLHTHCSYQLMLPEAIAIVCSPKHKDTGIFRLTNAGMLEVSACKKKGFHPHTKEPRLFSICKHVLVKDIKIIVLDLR
UniProt Q96A49: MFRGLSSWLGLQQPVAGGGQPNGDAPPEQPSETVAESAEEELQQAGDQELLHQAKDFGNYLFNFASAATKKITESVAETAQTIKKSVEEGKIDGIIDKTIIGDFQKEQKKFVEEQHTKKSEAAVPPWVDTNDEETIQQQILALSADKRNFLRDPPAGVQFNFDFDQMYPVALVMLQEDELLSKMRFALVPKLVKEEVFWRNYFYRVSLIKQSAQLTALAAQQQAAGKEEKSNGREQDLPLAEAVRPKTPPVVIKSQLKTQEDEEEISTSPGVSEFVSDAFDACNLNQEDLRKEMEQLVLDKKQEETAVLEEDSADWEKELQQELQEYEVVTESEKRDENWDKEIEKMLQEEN
UniProt O95391: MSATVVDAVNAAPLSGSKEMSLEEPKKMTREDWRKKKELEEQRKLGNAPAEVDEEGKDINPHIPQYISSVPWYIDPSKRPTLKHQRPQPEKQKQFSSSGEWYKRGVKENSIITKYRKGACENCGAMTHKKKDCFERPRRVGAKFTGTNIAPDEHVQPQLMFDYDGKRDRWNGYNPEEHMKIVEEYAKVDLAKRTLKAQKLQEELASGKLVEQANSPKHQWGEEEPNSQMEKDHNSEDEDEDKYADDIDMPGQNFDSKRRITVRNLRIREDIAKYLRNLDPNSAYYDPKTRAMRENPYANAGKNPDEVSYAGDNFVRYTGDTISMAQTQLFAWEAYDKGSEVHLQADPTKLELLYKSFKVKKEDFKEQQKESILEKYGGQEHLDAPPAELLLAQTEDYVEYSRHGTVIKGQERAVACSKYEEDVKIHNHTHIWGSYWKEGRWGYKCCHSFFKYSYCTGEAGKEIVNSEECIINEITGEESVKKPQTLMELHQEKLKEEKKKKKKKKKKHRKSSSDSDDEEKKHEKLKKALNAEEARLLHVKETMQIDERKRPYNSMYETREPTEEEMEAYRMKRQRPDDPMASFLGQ
UniProt A8MWD9, whole entry: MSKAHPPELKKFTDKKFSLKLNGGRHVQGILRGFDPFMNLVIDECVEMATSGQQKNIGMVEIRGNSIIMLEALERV
UniProt P62306, whole entry, looked up: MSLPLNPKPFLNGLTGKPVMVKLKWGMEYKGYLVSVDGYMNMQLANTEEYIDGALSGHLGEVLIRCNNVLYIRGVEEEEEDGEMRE
UniProt Q9BWU0: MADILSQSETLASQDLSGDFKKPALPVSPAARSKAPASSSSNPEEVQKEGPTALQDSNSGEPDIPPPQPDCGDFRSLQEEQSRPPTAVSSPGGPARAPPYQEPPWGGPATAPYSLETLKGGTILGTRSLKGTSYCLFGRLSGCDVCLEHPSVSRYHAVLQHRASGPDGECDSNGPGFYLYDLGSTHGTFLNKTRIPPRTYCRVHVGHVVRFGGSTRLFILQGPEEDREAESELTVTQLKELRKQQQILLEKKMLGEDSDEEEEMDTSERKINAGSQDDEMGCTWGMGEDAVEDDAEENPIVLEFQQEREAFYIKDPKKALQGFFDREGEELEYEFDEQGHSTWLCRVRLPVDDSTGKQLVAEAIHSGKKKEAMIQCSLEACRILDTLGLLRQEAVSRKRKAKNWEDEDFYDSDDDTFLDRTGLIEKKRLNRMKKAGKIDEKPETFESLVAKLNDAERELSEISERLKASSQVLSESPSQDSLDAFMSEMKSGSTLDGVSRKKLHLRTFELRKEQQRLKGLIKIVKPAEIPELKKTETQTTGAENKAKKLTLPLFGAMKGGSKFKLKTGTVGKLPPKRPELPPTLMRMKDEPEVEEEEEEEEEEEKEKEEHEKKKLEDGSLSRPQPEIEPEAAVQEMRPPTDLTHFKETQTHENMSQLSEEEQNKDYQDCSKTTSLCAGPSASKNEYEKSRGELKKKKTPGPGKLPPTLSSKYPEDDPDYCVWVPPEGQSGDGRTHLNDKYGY
UniProt Q96EB6: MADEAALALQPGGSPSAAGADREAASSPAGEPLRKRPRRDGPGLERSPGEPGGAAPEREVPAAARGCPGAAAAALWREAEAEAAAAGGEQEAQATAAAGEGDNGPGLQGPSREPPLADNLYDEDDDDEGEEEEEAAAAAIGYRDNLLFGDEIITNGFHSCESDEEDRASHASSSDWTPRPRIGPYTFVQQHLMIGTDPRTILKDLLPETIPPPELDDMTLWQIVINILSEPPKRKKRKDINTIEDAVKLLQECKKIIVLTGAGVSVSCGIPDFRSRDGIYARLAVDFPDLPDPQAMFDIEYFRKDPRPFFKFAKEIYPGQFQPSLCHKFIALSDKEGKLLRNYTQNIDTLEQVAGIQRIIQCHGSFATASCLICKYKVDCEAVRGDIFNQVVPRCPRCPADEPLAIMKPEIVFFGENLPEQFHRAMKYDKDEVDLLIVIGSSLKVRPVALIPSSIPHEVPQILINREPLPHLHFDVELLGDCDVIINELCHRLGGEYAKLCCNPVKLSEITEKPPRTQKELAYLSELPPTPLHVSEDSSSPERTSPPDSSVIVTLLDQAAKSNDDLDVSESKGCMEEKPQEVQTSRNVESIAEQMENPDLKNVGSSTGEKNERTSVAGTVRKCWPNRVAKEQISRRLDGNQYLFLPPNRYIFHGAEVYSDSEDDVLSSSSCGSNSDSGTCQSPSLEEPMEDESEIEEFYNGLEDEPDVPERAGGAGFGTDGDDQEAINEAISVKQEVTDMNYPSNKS
UniProt Q15036: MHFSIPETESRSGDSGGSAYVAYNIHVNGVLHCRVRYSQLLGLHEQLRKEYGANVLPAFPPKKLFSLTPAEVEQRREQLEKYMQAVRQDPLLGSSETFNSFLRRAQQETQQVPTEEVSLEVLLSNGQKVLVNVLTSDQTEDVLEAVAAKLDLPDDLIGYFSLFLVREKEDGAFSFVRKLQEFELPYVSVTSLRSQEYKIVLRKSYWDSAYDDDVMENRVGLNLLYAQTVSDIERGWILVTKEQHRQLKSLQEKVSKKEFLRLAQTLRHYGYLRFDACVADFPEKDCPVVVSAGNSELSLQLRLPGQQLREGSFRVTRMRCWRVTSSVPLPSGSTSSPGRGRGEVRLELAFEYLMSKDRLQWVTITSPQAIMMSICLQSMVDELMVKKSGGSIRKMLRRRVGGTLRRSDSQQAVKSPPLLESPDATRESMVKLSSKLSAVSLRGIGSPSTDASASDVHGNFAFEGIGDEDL
UniProt Q92804: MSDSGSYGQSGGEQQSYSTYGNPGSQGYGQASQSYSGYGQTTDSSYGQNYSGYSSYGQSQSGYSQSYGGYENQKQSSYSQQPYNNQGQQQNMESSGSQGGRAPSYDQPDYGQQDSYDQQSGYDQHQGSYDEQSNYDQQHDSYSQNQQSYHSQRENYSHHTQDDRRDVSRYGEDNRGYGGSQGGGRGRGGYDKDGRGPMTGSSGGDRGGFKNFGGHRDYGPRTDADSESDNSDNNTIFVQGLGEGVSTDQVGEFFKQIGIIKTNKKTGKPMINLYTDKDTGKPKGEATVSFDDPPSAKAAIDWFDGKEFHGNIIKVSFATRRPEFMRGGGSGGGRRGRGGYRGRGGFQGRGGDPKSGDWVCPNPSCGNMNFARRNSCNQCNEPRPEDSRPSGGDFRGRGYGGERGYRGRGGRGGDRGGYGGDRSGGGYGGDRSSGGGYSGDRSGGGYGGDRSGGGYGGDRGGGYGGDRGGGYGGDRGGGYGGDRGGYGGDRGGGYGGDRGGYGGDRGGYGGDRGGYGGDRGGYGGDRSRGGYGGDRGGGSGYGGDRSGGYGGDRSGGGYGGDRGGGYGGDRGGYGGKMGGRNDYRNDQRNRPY
UniProt O95721: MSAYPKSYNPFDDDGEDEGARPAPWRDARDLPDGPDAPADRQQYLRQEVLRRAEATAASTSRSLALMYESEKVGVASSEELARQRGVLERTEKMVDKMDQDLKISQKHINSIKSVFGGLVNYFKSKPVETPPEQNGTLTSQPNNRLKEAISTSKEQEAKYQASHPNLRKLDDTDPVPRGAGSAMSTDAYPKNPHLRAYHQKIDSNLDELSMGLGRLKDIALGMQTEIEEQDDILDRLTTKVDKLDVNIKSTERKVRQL
UniProt Q9NZD8: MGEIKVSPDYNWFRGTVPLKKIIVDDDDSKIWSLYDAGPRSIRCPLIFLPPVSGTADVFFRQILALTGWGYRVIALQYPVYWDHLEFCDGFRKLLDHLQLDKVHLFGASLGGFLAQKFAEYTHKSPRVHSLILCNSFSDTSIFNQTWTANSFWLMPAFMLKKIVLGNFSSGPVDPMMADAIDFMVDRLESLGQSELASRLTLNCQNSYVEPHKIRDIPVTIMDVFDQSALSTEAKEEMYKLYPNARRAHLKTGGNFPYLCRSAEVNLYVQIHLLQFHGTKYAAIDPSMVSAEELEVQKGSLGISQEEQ
UniProt Q9H930: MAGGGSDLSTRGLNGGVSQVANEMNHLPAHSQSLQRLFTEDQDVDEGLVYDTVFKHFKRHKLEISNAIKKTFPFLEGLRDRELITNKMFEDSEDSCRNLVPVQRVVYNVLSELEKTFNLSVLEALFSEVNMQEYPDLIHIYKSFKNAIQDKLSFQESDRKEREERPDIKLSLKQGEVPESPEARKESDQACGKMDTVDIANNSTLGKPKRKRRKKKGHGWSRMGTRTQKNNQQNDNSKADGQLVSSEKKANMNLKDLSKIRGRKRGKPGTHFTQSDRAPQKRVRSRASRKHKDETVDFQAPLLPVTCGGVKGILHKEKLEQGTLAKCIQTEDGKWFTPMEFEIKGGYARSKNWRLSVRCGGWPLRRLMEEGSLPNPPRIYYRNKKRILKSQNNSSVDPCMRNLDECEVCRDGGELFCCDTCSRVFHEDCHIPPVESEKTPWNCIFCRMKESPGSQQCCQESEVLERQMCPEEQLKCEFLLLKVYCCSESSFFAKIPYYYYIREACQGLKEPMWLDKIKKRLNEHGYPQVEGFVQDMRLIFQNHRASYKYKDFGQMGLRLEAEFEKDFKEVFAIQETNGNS
UniProt P09661: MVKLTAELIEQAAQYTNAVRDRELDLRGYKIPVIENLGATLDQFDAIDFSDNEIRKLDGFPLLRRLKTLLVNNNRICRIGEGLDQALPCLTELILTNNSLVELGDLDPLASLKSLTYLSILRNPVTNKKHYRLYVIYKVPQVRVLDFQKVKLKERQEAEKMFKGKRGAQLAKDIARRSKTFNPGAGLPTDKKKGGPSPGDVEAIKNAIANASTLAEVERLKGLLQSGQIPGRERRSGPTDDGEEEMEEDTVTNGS
UniProt Q96SB8: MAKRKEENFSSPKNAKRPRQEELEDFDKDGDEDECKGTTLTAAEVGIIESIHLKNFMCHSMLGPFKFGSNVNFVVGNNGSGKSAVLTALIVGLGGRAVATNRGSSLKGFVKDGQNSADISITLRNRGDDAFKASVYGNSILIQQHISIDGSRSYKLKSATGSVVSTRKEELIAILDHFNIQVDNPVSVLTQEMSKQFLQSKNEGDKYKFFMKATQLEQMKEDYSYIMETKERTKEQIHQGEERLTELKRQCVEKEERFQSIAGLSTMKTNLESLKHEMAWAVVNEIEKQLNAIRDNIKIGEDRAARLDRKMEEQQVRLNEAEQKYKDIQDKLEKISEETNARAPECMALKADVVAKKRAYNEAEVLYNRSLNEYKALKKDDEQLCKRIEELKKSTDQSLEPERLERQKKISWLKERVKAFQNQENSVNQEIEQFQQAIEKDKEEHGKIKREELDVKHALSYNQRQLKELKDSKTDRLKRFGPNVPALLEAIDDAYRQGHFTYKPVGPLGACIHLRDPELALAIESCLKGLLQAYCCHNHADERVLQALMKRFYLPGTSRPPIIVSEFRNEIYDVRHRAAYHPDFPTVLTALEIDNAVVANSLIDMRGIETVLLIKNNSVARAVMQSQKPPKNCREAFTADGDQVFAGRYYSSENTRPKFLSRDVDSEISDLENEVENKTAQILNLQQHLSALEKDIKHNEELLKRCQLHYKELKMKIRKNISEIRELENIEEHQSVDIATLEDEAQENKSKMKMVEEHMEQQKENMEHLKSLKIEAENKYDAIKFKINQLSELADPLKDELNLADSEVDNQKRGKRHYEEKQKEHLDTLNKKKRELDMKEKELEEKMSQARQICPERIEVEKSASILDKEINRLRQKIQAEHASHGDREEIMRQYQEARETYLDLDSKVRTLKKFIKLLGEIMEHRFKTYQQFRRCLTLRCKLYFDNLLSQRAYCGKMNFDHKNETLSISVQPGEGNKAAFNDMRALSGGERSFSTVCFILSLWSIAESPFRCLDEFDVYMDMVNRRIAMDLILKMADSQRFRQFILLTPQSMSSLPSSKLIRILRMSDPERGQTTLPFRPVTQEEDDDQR

compound: Nc1nc2c(ncn2[C@@H]2O[C@H](COP(=O)(O)OP(=O)(O)OP(=O)(O)O)[C@@H](O)[C@H]2O)c(=O)[nH]1; assay: dose-dependent thermal stabilisation call (2D-TPP, DLPTP, 10% FDR) (binary (1 = stabilised)); higher = stabilised by the compound; conditions: system: Jurkat gel-filtered lysate; concentration range 1-500 µM
Experimental: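 2D thermal proteome profiling in gel-filtered Jurkat E6.1 lysate (2 mg/ml) treated with NaGTP (0, 1, 10, 100, 500 uM) for 10 min at room temperature, then heated 3 min at one of 12 temperatures (42-63.9 C). Soluble protein was quantified by TMT10 MS. The value is the DLPTP call of the paper: dose-dependent thermal stabilisation over all temperatures at 10% FDR (F-test of a dose-response against a flat model); one experiment, one call per tested protein.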

Target	dose-dependent thermal stabilisation call
STAMBPL1 (UniProt Q96FJ0)	inactive: 0
STK24 (UniProt Q9Y6E0)	inactive: 0
STRADA (UniProt Q7RTN6)	inactive: 0
SLIRP (UniProt Q9GZT3)	inactive: 0
SMC2 (UniProt O95347)	inactive: 0
SYAP1 (UniProt Q96A49)	inactive: 0
SNW1 (UniProt Q13573)	inactive: 0
SMAD4 (UniProt Q13485)	inactive: 0
STRN3 (UniProt Q13033)	active: 1
SNRNP200 (UniProt O75643)	inactive: 0
SLAIN2 (UniProt Q9P270)	inactive: 0
TACO1 (UniProt Q9BSH4)	inactive: 0
SMTN (UniProt P53814)	inactive: 0
SLU7 (UniProt O95391)	inactive: 0
SPATA5 (UniProt Q8NB90)	active: 1
SNRPGP15 (UniProt A8MWD9)	inactive: 0
SIVA1 (UniProt O15304)	inactive: 0
SRF (UniProt P11831)	inactive: 0
SNRPF (UniProt P62306)	inactive: 0
SPTY2D1 (UniProt Q68D10)	inactive: 0

Target	dose-dependent thermal stabilisation call
SLC4A1AP (UniProt Q9BWU0)	inactive: 0
SIRT1 (UniProt Q96EB6)	active: 1
SNX17 (UniProt Q15036)	inactive: 0
SNX8 (UniProt Q9Y5X2)	inactive: 0
SPTAN1 (UniProt Q13813)	inactive: 0
SNUPN (UniProt O95149)	active: 1
TAF15 (UniProt Q92804)	inactive: 0
SNAP29 (UniProt O95721)	inactive: 0
SNTB2 (UniProt Q13425)	inactive: 0
SNRPC (UniProt P09234)	inactive: 0
SPG21 (UniProt Q9NZD8)	active: 1
TAF2 (UniProt Q6P1X5)	inactive: 0
SP140L (UniProt Q9H930)	inactive: 0
SZRD1 (UniProt Q7Z422)	inactive: 0
STAM2 (UniProt O75886)	inactive: 0
SNRPA1 (UniProt P09661)	inactive: 0
SMC6 (UniProt Q96SB8)	active: 1
STRIP1 (UniProt Q5VSL9)	inactive: 0
SPICE1 (UniProt Q8N0Z3)	inactive: 0
STRBP (UniProt Q96SI9)	inactive: 0

A portion taken from the entries so far, as a working copy:
Target	dose-dependent thermal stabilisation call
SZRD1 (UniProt Q7Z422)	inactive: 0
STAM2 (UniProt O75886)	inactive: 0
